{"source": "the supplement of paper PMC8728848", "binders": {"B1": {"name": "GS7807G-bfa-506-18-506 (Bacteroides fragilis) (protein)", "chain": "ASCDKFDEINTDPDATTKVTSSLLATGLLLDITSSSASKSFIYDELLAKQMAWGESMEDYQYNVFGRSGFGGYTTLINAQKMVESVSDDNVNAYDGLAHFIKAYKIFYMSMEMGDLPYEEALQGELGLVRPKYNTQKEVMNFILSDLETAYELFSTAKDFDGDPILGGSISKWKKATTAFQLKVLMHLSKKESDADLKVKERFARIVASGSLMESNEDNLQMKYADKANTVYPFHNTNTKHAGYAMLSTMLIDKFKATGDIRMFYYAKPAKAKLNEGVTADSWDAYIGTDPSLPFEQIEKAYATEQYSGFNARYTDYPSGEPVVRLGYAEQNFILAEAAVRGWISGDASAYYKKAIRAHMEFIASNTPDEEVYHHGHPITEEAIAAFLETPAIQLSGEKEEDIEKILTQRYLASFMQHPYDVYYDYRRTGYPVLPINPATNRNTMNDRLPMRWMYPKSESDYNLEHQNEALERQFGGVDDVNKLMWILQ"}}, "assay_in_all_cases": "glycan array binding signal (z-score within array); higher = stronger binding", "conditions_in_all_cases": "glycan notation: IUPAC condensed, linker removed", "key": {"[1]": {"target": "Fuc(a1-2)Gal", "outline": "(§1)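 The Consortium for Functional Glycomics database supplied 3228 glycan arrays, of which those lacking an available protein sequence were dropped. The binding signal, a within-array Z-score, was averaged across arrays of the same protein sequence and across linkers. Negative scores can be read as non-binding.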"}, "[2]": {"target": "Fuc(a1-2)Gal(b1-3)GalNAc", "outline": "as §1"}, "[3]": {"target": "Fuc(a1-2)Gal(b1-3)GalNAc(a1-3)[Fuc(a1-2)]Gal(b1-4)Glc", "outline": "as §1"}, "[4]": {"target": "Fuc(a1-2)Gal(b1-3)GalNAc(a1-3)[Fuc(a1-2)]Gal(b1-4)GlcNAc", "outline": "as §1"}, "[5]": {"target": "Fuc(a1-2)Gal(b1-3)GalNAc(b1-3)Gal", "outline": "as §1"}, "[6]": {"target": "Fuc(a1-2)Gal(b1-3)GalNAc(b1-3)Gal(a1-4)Gal(b1-4)Glc", "outline": "as §1"}, "[7]": {"target": "Fuc(a1-2)Gal(b1-3)GalNAc(b1-4)[Neu5Ac(a2-3)]Gal(b1-4)Glc", "outline": "as §1"}, "[8]": {"target": "Fuc(a1-2)Gal(b1-3)GlcNAc", "outline": "as §1"}, "[9]": {"target": "Fuc(a1-2)Gal(b1-3)GlcNAc(b1-2)Man(a1-3)[Fuc(a1-2)Gal(b1-3)GlcNAc(b1-2)Man(a1-6)]Man(b1-4)GlcNAc(b1-4)GlcNAc", "outline": "as §1"}, "[10]": {"target": "Fuc(a1-2)Gal(b1-3)GlcNAc(b1-2)Man(a1-3)[Fuc(a1-2)Gal(b1-3)GlcNAc(b1-2)Man(a1-6)]Man(b1-4)GlcNAc(b1-4)[Fuc(a1-6)]GlcNAc", "outline": "as §1"}, "[11]": {"target": "Fuc(a1-2)Gal(b1-3)GlcNAc(b1-3)Gal(b1-4)Glc", "outline": "as §1"}, "[12]": {"target": "Fuc(a1-2)Gal(b1-3)GlcNAc(b1-3)GalNAc", "outline": "as §1"}, "[13]": {"target": "Fuc(a1-2)Gal(b1-3)GlcNAc(b1-3)[Fuc(a1-2)Gal(b1-3)GlcNAc(b1-6)]GalNAc", "outline": "as §1"}, "[14]": {"target": "Fuc(a1-2)Gal(b1-3)GlcNAc(b1-3)[Gal(b1-4)GlcNAc(b1-6)]Gal(b1-4)Glc", "outline": "as §1"}, "[15]": {"target": "Fuc(a1-2)Gal(b1-3)GlcNAc(b1-3)[Neu5Ac(a2-6)Gal(b1-4)GlcNAc(b1-6)]Gal(b1-4)Glc", "outline": "as §1"}, "[16]": {"target": "Fuc(a1-2)Gal(b1-3)GlcNAc6S", "outline": "as §1"}, "[17]": {"target": "Fuc(a1-2)Gal(b1-3)[Fuc(a1-4)]GlcNAc", "outline": "as §1"}, "[18]": {"target": "Fuc(a1-2)Gal(b1-3)[Fuc(a1-4)]GlcNAc(b1-2)Man(a1-3)[Fuc(a1-2)Gal(b1-3)[Fuc(a1-4)]GlcNAc(b1-2)Man(a1-3)]Man(b1-4)GlcNAc(b1-4)GlcNAc", "outline": "as §1"}, "[19]": {"target": "Fuc(a1-2)Gal(b1-3)[Fuc(a1-4)]GlcNAc(b1-2)Man(a1-3)[Fuc(a1-2)Gal(b1-3)[Fuc(a1-4)]GlcNAc(b1-2)Man(a1-6)]Man(b1-4)GlcNAc(b1-4)[Fuc(a1-6)]GlcNAc(b1-4)[Fuc(a1-6)]GlcNAc", "outline": "as §1"}, "[20]": {"target": "Fuc(a1-2)Gal(b1-3)[Fuc(a1-4)]GlcNAc(b1-3)[Fuc(a1-3)[Gal(b1-4)]GlcNAc(b1-6)]Gal(b1-4)Glc", "outline": "as §1"}, "[21]": {"target": "Fuc(a1-2)Gal(b1-3)[Fuc(a1-4)]GlcNAc(b1-3)[Gal(b1-4)GlcNAc(b1-6)]Gal(b1-4)Glc", "outline": "as §1"}, "[22]": {"target": "Fuc(a1-2)Gal(b1-4)Glc", "outline": "as §1"}, "[23]": {"target": "Fuc(a1-2)Gal(b1-4)Glc6S", "outline": "as §1"}, "[24]": {"target": "Fuc(a1-2)Gal(b1-4)GlcNAc", "outline": "as §1"}, "[25]": {"target": "Fuc(a1-2)Gal(b1-4)GlcNAc(b1-2)Man", "outline": "as §1"}, "[26]": {"target": "Fuc(a1-2)Gal(b1-4)GlcNAc(b1-2)Man(a1-3)[Fuc(a1-2)Gal(b1-4)GlcNAc(b1-2)Man(a1-6)]Man(b1-4)GlcNAc(b1-4)GlcNAc", "outline": "as §1"}, "[27]": {"target": "Fuc(a1-2)Gal(b1-4)GlcNAc(b1-2)Man(a1-3)[Fuc(a1-2)Gal(b1-4)GlcNAc(b1-2)Man(a1-6)]Man(b1-4)GlcNAc(b1-4)[Fuc(a1-6)]GlcNAc", "outline": "as §1"}, "[28]": {"target": "Fuc(a1-2)Gal(b1-4)GlcNAc(b1-2)[Fuc(a1-2)Gal(b1-4)GlcNAc(b1-4)]Man(a1-3)[Fuc(a1-2)Gal(b1-4)GlcNAc(b1-2)Man(a1-6)]Man(b1-4)GlcNAc(b1-4)GlcNAc", "outline": "as §1"}, "[29]": {"target": "Fuc(a1-2)Gal(b1-4)GlcNAc(b1-3)Gal(b1-4)GlcNAc", "outline": "as §1"}, "[30]": {"target": "Fuc(a1-2)Gal(b1-4)GlcNAc(b1-3)Gal(b1-4)GlcNAc(b1-2)Man(a1-3)[Fuc(a1-2)Gal(b1-4)GlcNAc(b1-3)Gal(b1-4)GlcNAc(b1-2)Man(a1-6)]Man(b1-4)GlcNAc(b1-4)GlcNAc", "outline": "as §1"}}, "note": "Some of the results follow."}
{"binder": "B1", "values": [{"measurement": "glycan array binding signal (z-score)", "setting": "[1]", "value": -0.293}, {"measurement": "glycan array binding signal (z-score)", "setting": "[2]", "value": -0.62}, {"measurement": "glycan array binding signal (z-score)", "setting": "[3]", "value": -0.851}, {"measurement": "glycan array binding signal (z-score)", "setting": "[4]", "value": -0.845}, {"measurement": "glycan array binding signal (z-score)", "setting": "[5]", "value": -0.909}, {"measurement": "glycan array binding signal (z-score)", "setting": "[6]", "value": -0.698}, {"measurement": "glycan array binding signal (z-score)", "setting": "[7]", "value": -0.68}, {"measurement": "glycan array binding signal (z-score)", "setting": "[8]", "value": -0.373}, {"measurement": "glycan array binding signal (z-score)", "setting": "[9]", "value": -0.108}, {"measurement": "glycan array binding signal (z-score)", "setting": "[10]", "value": 0.142}, {"measurement": "glycan array binding signal (z-score)", "setting": "[11]", "value": -0.527}, {"measurement": "glycan array binding signal (z-score)", "setting": "[12]", "value": -0.395}, {"measurement": "glycan array binding signal (z-score)", "setting": "[13]", "value": 3.91}, {"measurement": "glycan array binding signal (z-score)", "setting": "[14]", "value": 0.516}, {"measurement": "glycan array binding signal (z-score)", "setting": "[15]", "value": -0.857}, {"measurement": "glycan array binding signal (z-score)", "setting": "[16]", "value": -0.371}, {"measurement": "glycan array binding signal (z-score)", "setting": "[17]", "value": -1.01}, {"measurement": "glycan array binding signal (z-score)", "setting": "[18]", "value": 0.421}, {"measurement": "glycan array binding signal (z-score)", "setting": "[19]", "value": -0.199}, {"measurement": "glycan array binding signal (z-score)", "setting": "[20]", "value": -0.408}, {"measurement": "glycan array binding signal (z-score)", "setting": "[21]", "value": -0.803}, {"measurement": "glycan array binding signal (z-score)", "setting": "[22]", "value": -0.597}, {"measurement": "glycan array binding signal (z-score)", "setting": "[23]", "value": 0.434}, {"measurement": "glycan array binding signal (z-score)", "setting": "[24]", "value": -0.46}, {"measurement": "glycan array binding signal (z-score)", "setting": "[25]", "value": 0.262}, {"measurement": "glycan array binding signal (z-score)", "setting": "[26]", "value": 1.25}, {"measurement": "glycan array binding signal (z-score)", "setting": "[27]", "value": -0.467}, {"measurement": "glycan array binding signal (z-score)", "setting": "[28]", "value": -0.031}, {"measurement": "glycan array binding signal (z-score)", "setting": "[29]", "value": -0.967}, {"measurement": "glycan array binding signal (z-score)", "setting": "[30]", "value": 0.95}]}
